Reference: US6342335B1, “Polymethine compounds, method of producing same, and use thereof” (Yamamoto Chemicals, Inc., priority 1999, dated 2002)

Assay: Laser writing on original plate for direct printing plate making
Conditions: 0.1 weight part compound in light-to-heat conversion layer; 830 nm laser, beam diameter 10 μm, 110 mW on plate

For `COCCN1/C(=C\C=C2/CCCC(/C=C/C3=[N+](CCOC)c4c(C)cc(OC)cc4C3(C)C)=C2Cl)C(C)(C)c2cc(OC)cc(C)c21` [Compound (55), 2-(2-{2-chloro-3-[(1,3-dihydro-3,3,7-trimethyl-5-methoxy-1-methoxyethyl-2H-indol-2-ylidene)ethylidene]-1-cyclohexen-1-yl}ethenyl)-3,3,7-trimethyl-5-methoxy-1-methoxyethylindolium=tetrafluoroborate], the laser recording sensitivity was 200 mJ/cm^2 and the resolution was 8 μm.
